# Results reported in the supplement of paper PMC6411743.
# ± gives the standard deviation of the averaged measurements. Only a part is listed here, and it is no random draw.
# Key:
# Assay in all cases: NP40-soluble protein abundance relative to vehicle (solubility fold change) (ratio); higher = more soluble protein in presence of AMP-PNP
# ARL8A = molecular target: T1, ARL8A (UniProt Q96BM9)
# T1 sequence (whole entry): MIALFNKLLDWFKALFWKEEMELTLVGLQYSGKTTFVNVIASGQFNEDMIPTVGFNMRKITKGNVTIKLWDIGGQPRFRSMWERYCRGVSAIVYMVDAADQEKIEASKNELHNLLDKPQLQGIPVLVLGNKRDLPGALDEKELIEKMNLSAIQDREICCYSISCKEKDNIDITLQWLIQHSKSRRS
# Summary of the method: (§1)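 Each value is a fold change relative to the detergent-processed vehicle, calculated per replicate from vsn-normalised intensities. Jurkat crude lysate received eight concentrations (0.1 to 10 mM) for 10 min at room temperature and 3 min at 37 °C, then was solubilised in 0.8% NP40 with benzonase (60 min, 4 °C). The ultracentrifuged supernatant was TMT-labelled and run by LC-MS/MS in three independent experiments.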
# ATXN7L3B = molecular target: T2, ATXN7L3B (UniProt Q96GX2)
# T2 sequence (whole entry): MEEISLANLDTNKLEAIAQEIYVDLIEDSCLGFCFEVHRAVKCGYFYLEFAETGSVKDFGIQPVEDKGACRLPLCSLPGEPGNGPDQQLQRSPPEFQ
# Summary of the method: as §1
# DDRGK1 = molecular target: T3, DDRGK1 (UniProt Q96HY6)
# T3 sequence (whole entry): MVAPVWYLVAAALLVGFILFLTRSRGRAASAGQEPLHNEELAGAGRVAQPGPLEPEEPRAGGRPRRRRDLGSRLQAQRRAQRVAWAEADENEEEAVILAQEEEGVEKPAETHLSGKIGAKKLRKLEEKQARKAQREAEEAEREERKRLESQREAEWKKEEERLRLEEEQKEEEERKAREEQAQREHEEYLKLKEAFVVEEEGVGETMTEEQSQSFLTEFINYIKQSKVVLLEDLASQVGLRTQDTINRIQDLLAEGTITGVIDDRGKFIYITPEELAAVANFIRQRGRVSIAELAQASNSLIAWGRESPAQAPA
# Summary of the method: as §1
# DNAJC1 = molecular target: T4, DNAJC1 (UniProt Q96KC8)
# T4 sequence (whole entry): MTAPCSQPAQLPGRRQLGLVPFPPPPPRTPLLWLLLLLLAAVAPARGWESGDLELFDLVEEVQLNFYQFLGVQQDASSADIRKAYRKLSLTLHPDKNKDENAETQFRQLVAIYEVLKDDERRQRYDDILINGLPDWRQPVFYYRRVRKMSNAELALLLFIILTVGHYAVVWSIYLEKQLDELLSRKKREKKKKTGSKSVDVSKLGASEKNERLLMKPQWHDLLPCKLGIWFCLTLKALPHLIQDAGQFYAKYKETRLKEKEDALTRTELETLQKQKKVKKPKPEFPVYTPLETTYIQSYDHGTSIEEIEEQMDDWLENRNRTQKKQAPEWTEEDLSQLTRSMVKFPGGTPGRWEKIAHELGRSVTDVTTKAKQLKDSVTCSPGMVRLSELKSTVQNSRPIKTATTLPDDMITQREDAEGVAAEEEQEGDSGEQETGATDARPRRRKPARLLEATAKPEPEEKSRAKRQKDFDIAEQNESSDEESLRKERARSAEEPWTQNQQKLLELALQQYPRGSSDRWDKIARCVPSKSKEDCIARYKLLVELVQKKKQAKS
# Summary of the method: as §1
# ISOC1 = molecular target: T5, ISOC1 (UniProt Q96CN7)
# T5 sequence (whole entry): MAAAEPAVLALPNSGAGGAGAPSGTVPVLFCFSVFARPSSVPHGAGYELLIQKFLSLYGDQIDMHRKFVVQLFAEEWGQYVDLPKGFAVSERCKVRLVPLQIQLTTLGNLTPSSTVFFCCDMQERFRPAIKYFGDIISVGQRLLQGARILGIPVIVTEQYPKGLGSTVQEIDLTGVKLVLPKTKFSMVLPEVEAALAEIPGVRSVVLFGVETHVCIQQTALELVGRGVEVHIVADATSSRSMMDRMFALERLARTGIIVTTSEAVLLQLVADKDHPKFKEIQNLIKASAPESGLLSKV
# Summary of the method: as §1
structure (smiles),measurement,setting,value
Nc1ncnc2c1ncn2[C@@H]1O[C@H](COP(=O)(O)OP(=O)(O)NP(=O)(O)O)[C@@H](O)[C@H]1O [adenylyl imidodiphosphate],NP40-soluble protein abundance,ARL8A; concentration: 1mM,0.958 ± 0.019
same,NP40-soluble protein abundance,ARL8A; concentration: 2mM,0.928 ± 0.04
same,NP40-soluble protein abundance,ARL8A; concentration: 4mM,0.9093 ± 0.0026
same,NP40-soluble protein abundance,ARL8A; concentration: 6mM,0.933 ± 0.046
same,NP40-soluble protein abundance,ARL8A; concentration: 8mM,0.917 ± 0.018
same,NP40-soluble protein abundance,ARL8A; concentration: 10mM,0.932 ± 0.018
same,NP40-soluble protein abundance,ATXN7L3B; concentration: 1mM,1 ± 0.013
same,NP40-soluble protein abundance,ATXN7L3B; concentration: 2mM,1 ± 0.03
same,NP40-soluble protein abundance,ATXN7L3B; concentration: 4mM,0.951 ± 0.03
same,NP40-soluble protein abundance,ATXN7L3B; concentration: 6mM,0.959 ± 0.02
same,NP40-soluble protein abundance,ATXN7L3B; concentration: 8mM,0.945 ± 0.034
same,NP40-soluble protein abundance,ATXN7L3B; concentration: 10mM,0.935 ± 0.05
same,NP40-soluble protein abundance,DDRGK1; concentration: 1mM,1.08 ± 0.082
same,NP40-soluble protein abundance,DDRGK1; concentration: 2mM,1.17 ± 0.071
same,NP40-soluble protein abundance,DDRGK1; concentration: 4mM,1.13 ± 0.13
same,NP40-soluble protein abundance,DDRGK1; concentration: 6mM,1.03 ± 0.061
same,NP40-soluble protein abundance,DDRGK1; concentration: 8mM,1.05 ± 0.048
same,NP40-soluble protein abundance,DDRGK1; concentration: 10mM,1.05 ± 0.054
same,NP40-soluble protein abundance,DNAJC1; concentration: 1mM,1 ± 0.017
same,NP40-soluble protein abundance,DNAJC1; concentration: 2mM,1.07 ± 0.095
same,NP40-soluble protein abundance,DNAJC1; concentration: 4mM,0.9831 ± 0.0063
same,NP40-soluble protein abundance,DNAJC1; concentration: 6mM,0.975 ± 0.016
same,NP40-soluble protein abundance,DNAJC1; concentration: 8mM,0.986 ± 0.038
same,NP40-soluble protein abundance,DNAJC1; concentration: 10mM,0.994 ± 0.018
same,NP40-soluble protein abundance,ISOC1; concentration: 1mM,1 ± 0.04
same,NP40-soluble protein abundance,ISOC1; concentration: 2mM,0.939 ± 0.065
same,NP40-soluble protein abundance,ISOC1; concentration: 4mM,0.998 ± 0.024
same,NP40-soluble protein abundance,ISOC1; concentration: 6mM,0.994 ± 0.011
same,NP40-soluble protein abundance,ISOC1; concentration: 8mM,0.9802 ± 0.0032
same,NP40-soluble protein abundance,ISOC1; concentration: 10mM,0.957 ± 0.015

# 2 neighbouring records out of the list so far:
structure (smiles),measurement,setting,value
Nc1ncnc2c1ncn2[C@@H]1O[C@H](COP(=O)(O)OP(=O)(O)NP(=O)(O)O)[C@@H](O)[C@H]1O [adenylyl imidodiphosphate],NP40-soluble protein abundance,ARL8A; concentration: 8mM,0.917 ± 0.018
same,NP40-soluble protein abundance,ARL8A; concentration: 10mM,0.932 ± 0.018
